Source: the supplement of paper PMC5393889
The other results are listed elsewhere or left out.

What follows are molecules tested on Caenorhabditis elegans N2 (assay: aldicarb interaction hit call (worm growth perturbed in combination with 10 uM aldicarb in both replicates, no effect as single agent) (binary (1 = interacts)); higher = interacts with aldicarb (growth perturbed)). Conditions: first compound 1.5 µM; aldicarb concentration 10 µM; 6 days; 20 °C.
Method: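 C. elegans liquid growth assay in 96-well plates: about 40 synchronized L1 worms in NGM with HB101 E. coli, 6 days at 20 C, 0.6% DMSO. Each wactive compound was tested at 1.5 uM plus 10 uM aldicarb, and alone in DMSO controls. Viable worms were scored under a dissection microscope in two replicates. A hit is a compound that perturbed growth with aldicarb in both replicates but had no obvious effect as a single agent. Only compounds that overgrew as single agents are kept.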

Row | SMILES | aldicarb interaction hit call
1 | CCOc1ccc(Br)cc1C(=O)NC(C)c1ccccc1 (stereo not given) [wact-521] + CNC(=O)O/N=C/C(C)(C)SC [aldicarb] | inactive: 0
2 | O=C(Nc1ccc(Cl)c(Cl)c1)OCC(F)(F)F [wact-398] + CNC(=O)O/N=C/C(C)(C)SC [aldicarb] | inactive: 0
3 | O=C(Nc1ccc(N2CCOCC2)c(Cl)c1)c1ccc(-c2ccc(F)cc2)o1 [wact-61] + CNC(=O)O/N=C/C(C)(C)SC [aldicarb] | active: 1
4 | O=[N+]([O-])c1cccc(COc2ccc(F)cc2)c1 [wact-513] + CNC(=O)O/N=C/C(C)(C)SC [aldicarb] | inactive: 0
5 | O=C(Nc1cccc(-c2cccc(F)c2)c1)C1CCN(CC2CC2)CC1 [wact-264] + CNC(=O)O/N=C/C(C)(C)SC [aldicarb] | inactive: 0
6 | Cc1cc(C(=O)Nc2ccc(N3CCOCC3)c(Cl)c2)ccc1[N+](=O)[O-] [wact-480] + CNC(=O)O/N=C/C(C)(C)SC [aldicarb] | inactive: 0
7 | O=C1CC(N2CCN(c3ccc([N+](=O)[O-])cc3)CC2)C(=O)N1c1ccccc1F (stereo not given) [wact-56] + CNC(=O)O/N=C/C(C)(C)SC [aldicarb] | inactive: 0
8 | CC(C)C(=O)N1CCN(c2ccc(NC(=O)c3ccc(Br)o3)cc2Cl)CC1 [wact-539] + CNC(=O)O/N=C/C(C)(C)SC [aldicarb] | inactive: 0
9 | O=C(c1ccc(Cl)c(Cl)c1)N1CCN(c2ccc([N+](=O)[O-])cc2)CC1 [wact-53] + CNC(=O)O/N=C/C(C)(C)SC [aldicarb] | inactive: 0
10 | Clc1ccc(Cn2cc(I)cn2)cc1 [wact-554] + CNC(=O)O/N=C/C(C)(C)SC [aldicarb] | inactive: 0
11 | CCCN1CCCC(C(=O)Nc2ccc(-c3cccc(OC)c3)cc2)C1 (stereo not given) [wact-270] + CNC(=O)O/N=C/C(C)(C)SC [aldicarb] | inactive: 0
12 | O=C(c1cc(Cl)ccc1Cl)N1CCN(c2cccc(C(F)(F)F)c2)CC1 [wact-65] + CNC(=O)O/N=C/C(C)(C)SC [aldicarb] | inactive: 0
13 | O=C(Nc1ccc(NC(=S)NC(=O)c2ccccc2Cl)cc1)c1cccc(Cl)c1 [wact-459] + CNC(=O)O/N=C/C(C)(C)SC [aldicarb] | inactive: 0
14 | c1ccc(CNc2ccc(-c3nc4ncccc4o3)cc2)nc1 [wact-205] + CNC(=O)O/N=C/C(C)(C)SC [aldicarb] | inactive: 0
15 | Cc1c(Cl)cccc1Nc1nc(-c2ccncc2)cs1 [wact-474] + CNC(=O)O/N=C/C(C)(C)SC [aldicarb] | inactive: 0
16 | O=C(c1ccc(Cl)cc1)C1CCCN(Cc2ccc3ncccc3c2)C1 (stereo not given) [wact-317] + CNC(=O)O/N=C/C(C)(C)SC [aldicarb] | inactive: 0
17 | COC(=O)C1=C(C)NC2=C(C(=O)CC(c3cccs3)C2)C1c1cccc(O)c1 (stereo not given) [wact-468] + CNC(=O)O/N=C/C(C)(C)SC [aldicarb] | inactive: 0
18 | COC(=O)C1=C(C)NC2=C(C(=O)CC(c3ccc(F)cc3)C2)C1c1coc2ccc(Cl)cc2c1=O (stereo not given) [wact-527] + CNC(=O)O/N=C/C(C)(C)SC [aldicarb] | inactive: 0
19 | CCOc1ccc(S(=O)(=O)Nc2cc(C(=O)OC)ccc2C)cc1 [wact-518] + CNC(=O)O/N=C/C(C)(C)SC [aldicarb] | inactive: 0
20 | CC(C)Oc1ccc2c(=O)c(Oc3ccccc3)coc2c1 [wact-487] + CNC(=O)O/N=C/C(C)(C)SC [aldicarb] | inactive: 0

Row | SMILES | aldicarb interaction hit call
21 | C#Cc1cccc(NC(=O)/C=C/c2ccc(Cl)cc2)c1 [wact-348] + CNC(=O)O/N=C/C(C)(C)SC [aldicarb] | inactive: 0
22 | CC(NC(=O)C(Cl)(Cl)Cl)c1ccccc1 (stereo not given) [wact-214] + CNC(=O)O/N=C/C(C)(C)SC [aldicarb] | inactive: 0
23 | Cl.Clc1ccc(COc2ccc(CNC3CC3)cc2)cc1 [wact-204] + CNC(=O)O/N=C/C(C)(C)SC [aldicarb] | inactive: 0
24 | CC(=O)Oc1ccc(-c2nc3ccccc3s2)cc1 [wact-549] + CNC(=O)O/N=C/C(C)(C)SC [aldicarb] | inactive: 0
25 | O=C(NCC1CCCCC1)c1ccccc1I [wact-552] + CNC(=O)O/N=C/C(C)(C)SC [aldicarb] | inactive: 0
26 | Fc1ccc(N2CCN(C3CCCN(Cc4ccc(C(F)(F)F)cc4)C3)CC2)cc1 (stereo not given) [wact-308] + CNC(=O)O/N=C/C(C)(C)SC [aldicarb] | inactive: 0
27 | O=[N+]([O-])c1cc(C(F)(F)F)ccc1NCc1cccnc1 [wact-417] + CNC(=O)O/N=C/C(C)(C)SC [aldicarb] | inactive: 0
28 | CN(CC1CC=CCC1)CC1CCN(CCc2ccc(F)cc2)CC1 (stereo not given) [wact-303] + CNC(=O)O/N=C/C(C)(C)SC [aldicarb] | inactive: 0
29 | CC(C)(C)c1ccc(OCc2nc(-c3ccncc3)no2)cc1 [wact-441] + CNC(=O)O/N=C/C(C)(C)SC [aldicarb] | inactive: 0
30 | c1ccc(SCc2nc(-c3ccccn3)no2)cc1 [wact-84] + CNC(=O)O/N=C/C(C)(C)SC [aldicarb] | inactive: 0
31 | Cl.Clc1ccc(OCCCN2CCNCC2)cc1Cl [wact-77] + CNC(=O)O/N=C/C(C)(C)SC [aldicarb] | inactive: 0
32 | Cc1ccc(Cl)cc1N/C=C/C(=O)c1ccccc1 [wact-43] + CNC(=O)O/N=C/C(C)(C)SC [aldicarb] | inactive: 0
33 | CC(C(=O)N1CCCc2ccccc21)c1ccc([N+](=O)[O-])cc1 (stereo not given) [wact-511] + CNC(=O)O/N=C/C(C)(C)SC [aldicarb] | inactive: 0
34 | C#Cc1ccccc1COc1c(Cl)cc(/C=N/NC(=O)c2cc3ccccc3o2)cc1OC [wact-359] + CNC(=O)O/N=C/C(C)(C)SC [aldicarb] | inactive: 0
35 | Fc1ccccc1NC(=S)Nc1cccc(C(F)(F)F)c1 [wact-533] + CNC(=O)O/N=C/C(C)(C)SC [aldicarb] | inactive: 0
36 | Cc1cc(SCc2ccc(Cl)cc2)ncn1 [wact-577] + CNC(=O)O/N=C/C(C)(C)SC [aldicarb] | inactive: 0
37 | COC(=O)Nc1ccc(-c2ccccc2)cc1 [wact-120] + CNC(=O)O/N=C/C(C)(C)SC [aldicarb] | inactive: 0
38 | O=C1OCCC1Sc1nc(-c2ccc(Cl)cc2Cl)cs1 (stereo not given) [wact-551] + CNC(=O)O/N=C/C(C)(C)SC [aldicarb] | inactive: 0
39 | Cc1ccc2nc(-c3ccc(/N=C/c4c[nH]c5ccccc45)cc3)sc2c1 [wact-394] + CNC(=O)O/N=C/C(C)(C)SC [aldicarb] | inactive: 0
40 | O=C(NC(=S)Nc1sc2c(c1C(=O)O)CCCC2)c1ccccc1 [wact-451] + CNC(=O)O/N=C/C(C)(C)SC [aldicarb] | inactive: 0

Given comma-delimited: entries from further up.
Row,SMILES,aldicarb interaction hit call
9,O=C(c1ccc(Cl)c(Cl)c1)N1CCN(c2ccc([N+](=O)[O-])cc2)CC1 [wact-53] + CNC(=O)O/N=C/C(C)(C)SC [aldicarb],inactive: 0
36,Cc1cc(SCc2ccc(Cl)cc2)ncn1 [wact-577] + CNC(=O)O/N=C/C(C)(C)SC [aldicarb],inactive: 0
